Test results published in PubChem BioAssay AID328 (DTP/NCI, 2004).
The list does not hold the whole screen: it gathers tests that were run many times, whatever their T/C, doses with no T/C, and many T/C values between a quarter and a half above the control. Further doses and runs are listed elsewhere. T/C is the treated group as % of the vehicle group. Some entries give survivors of the animals treated and no T/C: the source holds a T/C of zero for them, seemingly a mark for toxic or unscored doses. Some doses without a T/C left all or most animals alive at the check, yet need not have been tolerated: the source hardly ever lists a survival T/C far under the control, and the zero likely stands for such cases as well. Counts of survivors are from the toxicity check (mostly the fifth day) where no day follows; animals may have died later. Schedule codes are those of the source, read here as Q, the interval in days (D) or hours (H), X, the number of doses. Some entries were tested several times; the values are given in rising order. Where survival is the endpoint, the PubChem record calls one and a half times the control and up active, and a quarter to a half above the control has no call in these data; cut-offs in other NCI protocols can differ. Some T/C values are followed by the survivors on the day toxicity was checked, most often the fifth; where none is given, no animal had died by that day.

Test system: BDF1 mice, P388 leukemia ip, median survival T/C
Assay: NCI In Vivo Anticancer Drug Screen. Data for tumor model P388 Leukemia (intraperitoneal) in B6D2F1 (BDF1) mice
Settings: T/C endpoint: median survival time, higher T/C = longer survival
Summary of the method: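 Transplantable tumour in mice; compound vs vehicle dosing; survival scored; ratio of treated to control reported.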

COC(=O)[C@@]12OC[C@]34[C@H]([C@@H](O)[C@@H]1O)[C@@]1(C)CC(=O)C(O)=C(C)[C@@H]1C[C@H]3OC(=O)[C@H](OC(=O)/C=C(\C)C(C)C)[C@@H]24
T/C (dose: 0.03 mg/kg/injection, schedule: Q01DX009 (ip), vehicle: saline with Tween-80): 137 % of control
T/C (dose: 0.03 mg/kg/injection, schedule: Q03HX024 (ip), vehicle: other): 134 % of control
T/C (dose: 0.03 mg/kg/injection, schedule: Q03HX024 (ip), vehicle: saline + alcohol): 132 and 145 % of control
T/C (dose: 0.03 mg/kg/injection, schedule: Q03HX024 (ip), vehicle: saline with Tween-80): 126 % of control
T/C (dose: 0.06 mg/kg/injection, schedule: Q01DX009 (ip), vehicle: saline + alcohol, evaluated on day 35): 151 % of control
T/C (dose: 0.06 mg/kg/injection, schedule: Q01DX009 (ip), vehicle: saline + alcohol, evaluated on day 60): 146, 149, 156 % of control
T/C (dose: 0.06 mg/kg/injection, schedule: Q01DX009 (ip), vehicle: saline with Tween-80, evaluated on day 30): 149 % of control
T/C (dose: 0.06 mg/kg/injection, schedule: Q01DX009 (ip), vehicle: saline with Tween-80, evaluated on day 60): 143 % of control
T/C (dose: 0.06 mg/kg/injection, schedule: Q01DX009 (ip), vehicle: saline): 125 % of control
T/C (dose: 0.06 mg/kg/injection, schedule: Q03HX016 (ip), vehicle: saline + alcohol): 148 % of control
T/C (dose: 0.06 mg/kg/injection, schedule: Q03HX016 (ip), vehicle: saline with Tween-80): 133 % of control
T/C (dose: 0.06 mg/kg/injection, schedule: Q03HX024 (ip), vehicle: saline with Tween-80): 140 % of control
T/C (dose: 0.12 mg/kg/injection, schedule: Q01DX009 (ip), vehicle: saline): 133 % of control
T/C (dose: 0.12 mg/kg/injection, schedule: Q03HX008 (ip), vehicle: saline with Tween-80): 125 % of control
T/C (dose: 0.12 mg/kg/injection, schedule: Q03HX016 (ip), vehicle: saline with Tween-80): 140 % of control
T/C (dose: 0.13 mg/kg/injection, schedule: Q03HX008 (ip), vehicle: saline + alcohol): 146 % of control
T/C (dose: 0.25 mg/kg/injection, schedule: Q01DX009 (ip), vehicle: saline + alcohol, evaluated on day 35): 191 % of control
T/C (dose: 0.25 mg/kg/injection, schedule: Q01DX009 (ip), vehicle: saline + alcohol, evaluated on day 60): 173, 174, 176 % of control
T/C (dose: 0.25 mg/kg/injection, schedule: Q01DX009 (ip), vehicle: saline): 141 % of control
T/C (dose: 0.25 mg/kg/injection, schedule: Q03HX008 (ip), vehicle: saline + alcohol): 147 % of control [9 of 10 alive]
T/C (dose: 0.25 mg/kg/injection, schedule: Q03HX008 (ip), vehicle: saline with Tween-80): 137 % of control [9 of 10 alive]
survivor count (dose: 0.25 mg/kg/injection, schedule: Q03HX016 (ip), vehicle: saline with Tween-80): 2 of 10
survivor count (dose: 0.25 mg/kg/injection, schedule: Q03HX024 (ip), vehicle: other): 3 of 10
survivor count (dose: 0.25 mg/kg/injection, schedule: Q03HX024 (ip), vehicle: saline + alcohol): 6 of 10 and 7 of 10
T/C (dose: 0.5 mg/kg/injection, schedule: Q01DX009 (ip), vehicle: saline + alcohol, evaluated on day 35): 186 % of control
T/C (dose: 0.5 mg/kg/injection, schedule: Q01DX009 (ip), vehicle: saline + alcohol, evaluated on day 60): 173, 177, 186 % of control
survivor count (dose: 0.5 mg/kg/injection, schedule: Q03HX008 (ip), vehicle: saline + alcohol): 3 of 10
survivor count (dose: 0.5 mg/kg/injection, schedule: Q03HX008 (ip), vehicle: saline with Tween-80): 0 of 10
survivor count (dose: 0.5 mg/kg/injection, schedule: Q03HX016 (ip), vehicle: saline + alcohol): 3 of 10
survivor count (dose: 0.5 mg/kg/injection, schedule: Q03HX016 (ip), vehicle: saline with Tween-80): 0 of 10
survivor count (dose: 0.5 mg/kg/injection, schedule: Q03HX024 (ip), vehicle: other): 0 of 10
survivor count (dose: 0.5 mg/kg/injection, schedule: Q03HX024 (ip), vehicle: saline + alcohol): 0 of 10 and 3 of 10
survivor count (dose: 0.5 mg/kg/injection, schedule: Q03HX024 (ip), vehicle: saline with Tween-80): 1 of 10
T/C (dose: 1.0 mg/kg/injection, schedule: Q01DX009 (ip), vehicle: saline + alcohol, evaluated on day 35): 204 % of control
T/C (dose: 1.0 mg/kg/injection, schedule: Q01DX009 (ip), vehicle: saline + alcohol, evaluated on day 60): 194, 203, 217 % of control
T/C (dose: 1.0 mg/kg/injection, schedule: Q01DX009 (sc), vehicle: saline + alcohol): 126 % of control
survivor count (dose: 1.0 mg/kg/injection, schedule: Q03HX008 (ip), vehicle: saline + alcohol): 0 of 10
survivor count (dose: 1.0 mg/kg/injection, schedule: Q03HX008 (ip), vehicle: saline with Tween-80): 0 of 10
survivor count (dose: 1.0 mg/kg/injection, schedule: Q03HX016 (ip), vehicle: saline + alcohol): 0 of 10
survivor count (dose: 1.0 mg/kg/injection, schedule: Q03HX016 (ip), vehicle: saline with Tween-80): 0 of 10
T/C (dose: 1.08 mg/kg/injection, schedule: Q04DX003 (ip), vehicle: saline + alcohol): 148 % of control
survivor count (dose: 2.0 mg/kg/injection, schedule: Q01DX009 (ip), vehicle: other): 6 of 10
